{"source": "the supplement of paper PMC4604168 (melanoma cell lines)", "note": "Some of the results follow. Single values are uncertain, as repeats are few or missing.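 Cells were imaged in 1,536-well plates, and nuclei stained with an antibody against cleaved PARP were counted against all DNA-stained nuclei to give the apoptosis fraction. Screening doses were chosen to leave most cells alive, and resting and induced cleaved-PARP levels differ strongly between cell lines.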", "data": [{"test_system": "WM3619", "assay": "cleaved PARP positive nuclei fraction relative to DMSO control; melanoma cells; higher = more apoptosis", "settings": "library dose: low library concentration; 72 h", "units": {"cleaved PARP positive nuclei fraction": "%"}, "values": [{"compound": "NC(=O)c1ccc(N(C(N)=O)c2c(F)cccc2F)nc1-c1ccc(F)cc1F", "note": "+ O=C(O)c1ccc(-c2c[nH]c3ncc(-c4ccccc4)cc23)cc1C1CCCC1 [GSK650394] (first compound 0.4 µM, partner dose 0.16 µM)", "cleaved PARP positive nuclei fraction": 95.1}, {"compound": "C[C@@H](N)c1ccc(C(=O)Nc2ccnc3[nH]ccc23)cc1", "note": "+ Cc1cc(N2CCOCC2)cc2[nH]c(-c3c(NC[C@@H](O)c4cccc(Cl)c4)cc[nH]c3=O)nc12 [BMS536924] (first compound 0.4 µM, partner dose 0.2 µM)", "cleaved PARP positive nuclei fraction": 88.1}, {"compound": "CC(=O)O[C@@]12CO[C@@H]1C[C@H](O)[C@@]1(C)C(=O)[C@H](O)C3=C(C)[C@@H](OC(=O)[C@H](O)[C@@H](NC(=O)OC(C)(C)C)c4ccccc4)C[C@@](O)([C@@H](OC(=O)c4ccccc4)[C@H]21)C3(C)C", "note": "[Docetaxel] + COc1ccc(-c2ccc3c(N4CCOCC4)nc(N4C[C@@H](C)O[C@@H](C)C4)nc3n2)cc1CO [KU0063794] (first compound 0.0001 µM, partner dose 0.02 µM)", "cleaved PARP positive nuclei fraction": 135}, {"compound": "CCCCCCCCc1ccc(CCC(N)(CO)CO)cc1", "note": "[fingolimod] + Cc1cc([N+](=O)[O-])ccc1NS(=O)(=O)c1cc(Cl)ccc1Cl [FH535] (first compound 2 µM, partner dose 1 µM)", "cleaved PARP positive nuclei fraction": 69.8}, {"compound": "CCCCCCCCc1ccc(CCC(N)(CO)CO)cc1", "note": "[fingolimod] + Cn1cc(/C=C2\\C(=O)Nc3cccnc32)c2ccccc21 [GW441756] (first compound 2 µM, partner dose 0.4 µM)", "cleaved PARP positive nuclei fraction": 93.9}, {"compound": "Cn1cnc2c(F)c(Nc3ccc(Br)cc3Cl)c(C(=O)NOCCO)cc21", "note": "[selumetinib] + O=C(Nc1ccccc1)c1cc([N+](=O)[O-])ccc1Cl [GW9662] (first compound 0.015 µM, partner dose 2 µM)", "cleaved PARP positive nuclei fraction": 139}, {"compound": "COc1ccc(C2=N[C@@H](c3ccc(Cl)cc3)[C@@H](c3ccc(Cl)cc3)N2C(=O)N2CCNC(=O)C2)c(OC(C)C)c1", "note": "[Nutlin-3] + COc1ccc2c(c1)CCC1C2CCC2(C)C(NCCCCCCN3C(=O)C=CC3=O)CCC12 [U73122] (first compound 0.1 µM, partner dose 0.4 µM)", "cleaved PARP positive nuclei fraction": 119}, {"compound": "CS(=O)(=O)c1ccc(C(=O)Nc2ccc(Cl)c(-c3ccccn3)c2)c(Cl)c1", "note": "[vismodegib] + Cc1cc(N2CCOCC2)cc2[nH]c(-c3c(NC[C@@H](O)c4cccc(Cl)c4)cc[nH]c3=O)nc12 [BMS536924] (first compound 1 µM, partner dose 0.2 µM)", "cleaved PARP positive nuclei fraction": 91.1}, {"compound": "CC1(C)CCC(c2ccc(Cl)cc2)=C(CN2CCN(c3ccc(C(=O)NS(=O)(=O)c4ccc(N[C@H](CCN5CCOCC5)CSc5ccccc5)c(S(=O)(=O)C(F)(F)F)c4)cc3)CC2)C1", "note": "+ Cc1cc(N2CCOCC2)cc2[nH]c(-c3c(NC[C@@H](O)c4cccc(Cl)c4)cc[nH]c3=O)nc12 [BMS536924] (first compound 0.4 µM, partner dose 0.2 µM)", "cleaved PARP positive nuclei fraction": 123}, {"compound": "CC(=O)O[C@@]12CO[C@@H]1C[C@H](O)[C@@]1(C)C(=O)[C@H](O)C3=C(C)[C@@H](OC(=O)[C@H](O)[C@@H](NC(=O)OC(C)(C)C)c4ccccc4)C[C@@](O)([C@@H](OC(=O)c4ccccc4)[C@H]21)C3(C)C", "note": "[Docetaxel] + Cc1ccc(NC(=O)c2cccc(N(C)C)c2)cc1NC(=O)c1ccc(O)cc1 [ZM336372] (first compound 0.0001 µM, partner dose 2 µM)", "cleaved PARP positive nuclei fraction": 168}, {"compound": "C[C@@H](N)c1ccc(C(=O)Nc2ccnc3[nH]ccc23)cc1", "note": "+ COc1cc(N2CCC(N3CCN(C)CC3)CC2)ccc1Nc1ncc(Cl)c(Nc2ccccc2S(=O)(=O)C(C)C)n1 [NVP-TAE684] (first compound 0.4 µM, partner dose 0.08 µM)", "cleaved PARP positive nuclei fraction": 128}, {"compound": "CCN(CC)CCNC(=O)c1c(C)[nH]c(/C=C2\\C(=O)Nc3ccc(F)cc32)c1C", "note": "[sunitinib] + O=c1cc(-c2cccc3c2Sc2ccccc2S3)oc(N2CCOCC2)c1 [KU55933] (first compound 0.4 µM, partner dose 1 µM)", "cleaved PARP positive nuclei fraction": 64.5}, {"compound": "C[C@]1(O)C[C@@H](c2nc(-c3ccc4ccc(-c5ccccc5)nc4c3)c3c(N)nccn32)C1", "note": "+ O=C(Nc1ccccc1)c1cc([N+](=O)[O-])ccc1Cl [GW9662] (first compound 0.4 µM, partner dose 2 µM)", "cleaved PARP positive nuclei fraction": 107}, {"compound": "CCCCCCCCc1ccc(CCC(N)(CO)CO)cc1", "note": "[fingolimod] + NCC(=O)Nc1ccc(-n2nc(C(F)(F)F)cc2-c2ccc3c(ccc4ccccc43)c2)cc1 [OSU03012] (first compound 2 µM, partner dose 1 µM)", "cleaved PARP positive nuclei fraction": 95.7}, {"compound": "CC1(C)CCC(c2ccc(Cl)cc2)=C(CN2CCN(c3ccc(C(=O)NS(=O)(=O)c4ccc(N[C@H](CCN5CCOCC5)CSc5ccccc5)c(S(=O)(=O)C(F)(F)F)c4)cc3)CC2)C1", "note": "+ CO[C@@H]1[C@H](N(C)C(=O)c2ccccc2)C[C@H]2O[C@]1(C)n1c3ccccc3c3c4c(c5c6ccccc6n2c5c31)C(=O)NC4 [Midostaurin] (first compound 0.4 µM, partner dose 0.08 µM)", "cleaved PARP positive nuclei fraction": 108}, {"compound": "C[C@]1(O)C[C@@H](c2nc(-c3ccc4ccc(-c5ccccc5)nc4c3)c3c(N)nccn32)C1", "note": "+ Cc1cc([N+](=O)[O-])ccc1NS(=O)(=O)c1cc(Cl)ccc1Cl [FH535] (first compound 0.4 µM, partner dose 1 µM)", "cleaved PARP positive nuclei fraction": 104}]}]}
